This is an account of results in patent publication US20110135647A1.

Protein sequences, listed by entry. Tags and fused reporters are not part of them. Lines headed by an entry give the natural chain unless they say otherwise; changes in a name come on top.
UniProt Q9NZJ0: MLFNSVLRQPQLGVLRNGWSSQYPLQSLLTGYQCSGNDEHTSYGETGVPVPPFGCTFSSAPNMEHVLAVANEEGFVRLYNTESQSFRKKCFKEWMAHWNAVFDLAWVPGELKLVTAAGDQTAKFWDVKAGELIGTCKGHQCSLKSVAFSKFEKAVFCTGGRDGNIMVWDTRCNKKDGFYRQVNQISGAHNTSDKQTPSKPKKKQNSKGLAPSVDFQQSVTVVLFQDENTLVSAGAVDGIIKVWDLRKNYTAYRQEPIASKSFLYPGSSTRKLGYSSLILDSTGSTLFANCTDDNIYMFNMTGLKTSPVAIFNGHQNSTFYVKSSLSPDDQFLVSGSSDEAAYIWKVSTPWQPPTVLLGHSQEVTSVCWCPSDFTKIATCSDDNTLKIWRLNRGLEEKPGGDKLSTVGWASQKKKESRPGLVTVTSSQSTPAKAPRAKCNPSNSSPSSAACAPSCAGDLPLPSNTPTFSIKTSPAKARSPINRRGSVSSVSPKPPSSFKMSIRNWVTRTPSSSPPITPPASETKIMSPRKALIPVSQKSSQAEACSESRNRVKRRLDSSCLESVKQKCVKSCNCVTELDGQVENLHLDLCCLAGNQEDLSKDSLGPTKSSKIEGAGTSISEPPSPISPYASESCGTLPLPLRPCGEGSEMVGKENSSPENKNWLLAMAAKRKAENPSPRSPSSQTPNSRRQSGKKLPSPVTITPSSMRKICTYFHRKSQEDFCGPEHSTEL
UniProt Q5TH69: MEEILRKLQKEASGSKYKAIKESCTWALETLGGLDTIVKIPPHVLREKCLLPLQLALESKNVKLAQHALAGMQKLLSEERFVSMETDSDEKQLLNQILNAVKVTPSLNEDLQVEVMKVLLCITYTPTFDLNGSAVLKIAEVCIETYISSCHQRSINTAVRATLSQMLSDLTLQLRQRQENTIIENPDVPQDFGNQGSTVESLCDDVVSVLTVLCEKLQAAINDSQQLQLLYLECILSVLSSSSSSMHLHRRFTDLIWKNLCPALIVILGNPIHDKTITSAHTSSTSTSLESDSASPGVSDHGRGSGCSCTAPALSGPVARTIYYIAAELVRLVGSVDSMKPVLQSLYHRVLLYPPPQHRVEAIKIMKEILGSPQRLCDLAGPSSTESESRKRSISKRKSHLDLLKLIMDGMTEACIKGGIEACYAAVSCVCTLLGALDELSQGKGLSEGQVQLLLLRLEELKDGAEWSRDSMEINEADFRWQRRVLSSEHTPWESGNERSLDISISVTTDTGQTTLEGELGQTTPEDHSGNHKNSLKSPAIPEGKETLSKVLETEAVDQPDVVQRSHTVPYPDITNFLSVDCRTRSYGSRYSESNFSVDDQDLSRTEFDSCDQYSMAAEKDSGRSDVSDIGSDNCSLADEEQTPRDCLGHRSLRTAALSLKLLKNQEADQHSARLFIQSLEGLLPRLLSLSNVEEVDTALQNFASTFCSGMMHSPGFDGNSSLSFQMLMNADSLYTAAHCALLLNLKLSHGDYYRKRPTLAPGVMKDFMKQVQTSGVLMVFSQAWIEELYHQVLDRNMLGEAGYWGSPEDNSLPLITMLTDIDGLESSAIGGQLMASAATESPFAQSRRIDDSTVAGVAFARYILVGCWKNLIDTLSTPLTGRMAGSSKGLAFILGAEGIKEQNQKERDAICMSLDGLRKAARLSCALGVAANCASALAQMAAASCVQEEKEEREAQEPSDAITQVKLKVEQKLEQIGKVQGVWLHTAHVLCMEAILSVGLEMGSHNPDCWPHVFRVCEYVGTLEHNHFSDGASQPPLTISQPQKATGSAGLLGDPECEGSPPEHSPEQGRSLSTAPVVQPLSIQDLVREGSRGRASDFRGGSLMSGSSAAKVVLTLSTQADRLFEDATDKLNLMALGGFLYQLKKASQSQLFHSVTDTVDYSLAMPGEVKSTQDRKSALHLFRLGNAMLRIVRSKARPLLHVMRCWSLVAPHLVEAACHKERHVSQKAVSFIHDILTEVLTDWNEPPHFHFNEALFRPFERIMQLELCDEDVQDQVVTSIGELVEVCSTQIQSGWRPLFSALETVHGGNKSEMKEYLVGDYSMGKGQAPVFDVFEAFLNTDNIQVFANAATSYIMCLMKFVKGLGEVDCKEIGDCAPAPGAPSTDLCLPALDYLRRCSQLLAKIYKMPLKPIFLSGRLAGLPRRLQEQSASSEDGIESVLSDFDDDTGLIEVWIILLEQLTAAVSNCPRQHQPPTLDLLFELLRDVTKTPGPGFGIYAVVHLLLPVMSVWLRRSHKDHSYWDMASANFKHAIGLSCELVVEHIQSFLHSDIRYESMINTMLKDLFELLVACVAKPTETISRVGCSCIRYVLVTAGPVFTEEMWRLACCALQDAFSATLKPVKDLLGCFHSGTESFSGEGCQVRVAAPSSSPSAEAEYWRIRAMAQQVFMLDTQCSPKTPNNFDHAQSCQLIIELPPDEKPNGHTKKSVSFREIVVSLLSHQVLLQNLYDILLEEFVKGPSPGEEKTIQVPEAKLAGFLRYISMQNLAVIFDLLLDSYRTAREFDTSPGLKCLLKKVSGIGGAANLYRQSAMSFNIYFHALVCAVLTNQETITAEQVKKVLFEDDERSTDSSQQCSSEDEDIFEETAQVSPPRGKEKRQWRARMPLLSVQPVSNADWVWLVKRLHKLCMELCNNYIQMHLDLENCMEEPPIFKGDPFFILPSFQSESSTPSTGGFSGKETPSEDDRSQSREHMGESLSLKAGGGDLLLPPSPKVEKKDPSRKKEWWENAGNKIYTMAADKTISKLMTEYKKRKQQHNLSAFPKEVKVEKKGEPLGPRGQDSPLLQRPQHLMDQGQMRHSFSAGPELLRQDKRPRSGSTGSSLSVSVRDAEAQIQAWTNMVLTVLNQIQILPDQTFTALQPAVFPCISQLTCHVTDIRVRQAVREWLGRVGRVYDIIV
UniProt Q96GD4: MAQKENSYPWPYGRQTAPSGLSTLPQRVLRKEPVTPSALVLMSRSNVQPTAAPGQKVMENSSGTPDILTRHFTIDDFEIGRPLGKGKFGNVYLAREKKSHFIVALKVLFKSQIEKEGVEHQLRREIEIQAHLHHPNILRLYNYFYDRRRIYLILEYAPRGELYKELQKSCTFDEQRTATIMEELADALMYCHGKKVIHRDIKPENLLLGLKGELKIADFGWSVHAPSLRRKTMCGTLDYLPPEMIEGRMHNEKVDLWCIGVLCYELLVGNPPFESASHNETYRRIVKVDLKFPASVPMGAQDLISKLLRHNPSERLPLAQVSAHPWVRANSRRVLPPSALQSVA
UniProt P62136: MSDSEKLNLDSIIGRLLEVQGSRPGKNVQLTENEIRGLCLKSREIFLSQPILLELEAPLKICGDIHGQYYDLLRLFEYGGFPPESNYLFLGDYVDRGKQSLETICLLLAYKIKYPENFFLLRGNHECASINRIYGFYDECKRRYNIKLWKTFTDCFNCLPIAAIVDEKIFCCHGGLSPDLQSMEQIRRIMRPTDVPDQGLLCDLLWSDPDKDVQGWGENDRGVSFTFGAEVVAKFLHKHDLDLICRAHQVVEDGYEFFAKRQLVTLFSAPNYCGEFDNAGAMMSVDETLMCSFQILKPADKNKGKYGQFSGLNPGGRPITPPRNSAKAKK
UniProt O35129: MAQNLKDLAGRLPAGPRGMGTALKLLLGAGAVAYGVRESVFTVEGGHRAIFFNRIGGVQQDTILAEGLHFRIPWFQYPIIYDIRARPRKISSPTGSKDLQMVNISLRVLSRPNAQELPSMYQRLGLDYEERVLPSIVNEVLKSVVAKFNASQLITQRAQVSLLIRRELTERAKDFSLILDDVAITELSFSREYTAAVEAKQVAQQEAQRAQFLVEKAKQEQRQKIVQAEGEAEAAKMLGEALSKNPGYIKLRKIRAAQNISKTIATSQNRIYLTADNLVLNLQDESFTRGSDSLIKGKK

No constants are given. Whether binding was seen depends on the method and setting. In cells and extracts the contact can be indirect. Some entries that bind do so weakly or less than the wild type. For part of these data: Tags and fused reporters may be left off the sequences shown.

Test [1] deals with HA-tagged PHB2/REA (PHB2/REA-HA; pCAGGSnHC-PHB2/REA) (human). As to the kind of experiment: co-immunoprecipitation from co-transfected COS-7 cells, both directions.
For test [2] the target is unchanged. As to the kind of experiment: conclusion from the co-immunoprecipitations in COS-7 cells.
Test [3] has the same target. As to the kind of experiment: co-immunoprecipitation from co-transfected COS-7 cells, anti-FLAG IP, anti-HA blot.
Test [4] has as its target HA-tagged F3374 (HA-F3374; pCAGGSn-F3374-HA) (human) (UniProt Q9NZJ0). As to the kind of experiment: co-immunoprecipitation.
The target is the same in test [5]. As to the kind of experiment: co-immunoprecipitation from co-transfected HEK293T cells, anti-Flag IP, anti-HA blot.
Test [6] shares this target. As to the kind of experiment: co-immunoprecipitation from co-transfected HEK293T cells, anti-Flag or normal mouse IgG IP, anti-HA blot.
Test [7] has as its target T1, HA-tagged PBK/TOPK (HA-PBK/TOPK), wild type (human) (UniProt Q96KB5).
T1 sequence: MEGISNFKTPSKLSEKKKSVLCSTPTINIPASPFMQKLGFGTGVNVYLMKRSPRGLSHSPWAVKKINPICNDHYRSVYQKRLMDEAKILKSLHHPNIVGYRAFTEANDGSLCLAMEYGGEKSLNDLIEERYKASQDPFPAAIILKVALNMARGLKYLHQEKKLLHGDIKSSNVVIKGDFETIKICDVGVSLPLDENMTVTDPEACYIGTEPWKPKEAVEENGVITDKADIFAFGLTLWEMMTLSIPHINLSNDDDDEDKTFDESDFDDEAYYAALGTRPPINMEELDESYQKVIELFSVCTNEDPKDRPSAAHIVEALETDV
As to the kind of experiment: GST pull-down and anti-HA immunoprecipitation from co-transfected COS-7 cells.

In test [8] the target is T1, HA-tagged PBK/TOPK (HA-PBK/TOPK), wild type (human). As to the kind of experiment: GST pull-down from co-transfected COS-7 cells.
Test [9] has as its target FLAG-tagged A7322 (A7322-FLAG; pCAGGSn3FC-A7322) (human) (UniProt Q5TH69). As to the kind of experiment: co-immunoprecipitation from co-transfected COS-7 cells, anti-HA IP, anti-FLAG blot.

Consider “FLAG-tagged A7322 (A7322-FLAG; pCAGGSn3FC-A7322) (from UniProt Q5TH69 1-2177)”, for which the binding entry in test [1], in test [2] and in [3] was “binds” in each case.
In the case of “Flag-tagged AURKB (Flag-AURKB; pCAGGSn-AURKB-3F) (from UniProt Q96GD4 1-344) (enzyme)”, the binding result in test [4], in [5] and in test [6] was “binds” in each case.
On to “GST-tagged PP1α (GST-PP1α) (from UniProt P62136 1-330) (enzyme)”, for which the binding entry in [7] and in [8] was “binds” throughout.
Turning to “HA-tagged PHB2/REA (PHB2/REA-HA; pCAGGSnHC-PHB2/REA) (from UniProt O35129 1-299)”, the binding result in test [9] is given as “binds”.
